PubChem BioAssay AID602196, INSERM, 2012
This is an unselected part of about 23,000 reagents. 455 of them (2%) count as active. 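Active includes both protection and sensitisation; some change values fall well beyond the stated -50 to +50 range.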 Entries without a mark were called inactive. The numbers tell different reagents against one gene apart. Reagent sequences are not shown. The record does not give: the amount of reagent.

Screen: 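Modifiers of cisplatin sensitivity in A549 cells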
Cells: human A549 lung cancer cells
Knock-down reagent: siRNA pair against human genes
Time to read-out: 48 h transfection before cisplatin; time from cisplatin to read-out not stated
Conditions: cisplatin at a dose killing half of control-siRNA cells; exact dose and duration not given
Measurement: 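Shift in cisplatin death relative to control siRNA, from -50 (all cells die) to +50 (no cells die); siRNAs harmful on their own scored 0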
Direction: two-siRNA summed score (-2 to +2): higher = both siRNAs protect from cisplatin killing; -2 means both sensitise; mean protection from cisplatin (shift in death) and protection from cisplatin (shift in death), siRNA C and protection from cisplatin (shift in death), siRNA D: higher = protection from cisplatin killing
Active means: 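siRNAs harmful alone (LDH or WST-1) get 0; others get +1 for less and -1 for more cisplatin killing; genes are active when the two siRNAs give the same sign, summing to ±2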
Calls: active = both siRNAs shift cisplatin killing the same way; inactive = no consistent shift, or siRNA harmful alone

| Target gene | reagent no. | two-siRNA summed score (-2 to +2) | mean protection from cisplatin (shift in death) (%) | protection from cisplatin (shift in death), siRNA C (%) | protection from cisplatin (shift in death), siRNA D (%) |
| --- | --- | --- | --- | --- | --- |
| RALGPS2 (GeneID 55103) | 1 | 0 | 5.6 | 0.9 | 10.3 |
| CACNA2D3 (GeneID 55799) | 1 | 0 | -3.1 | -30.2 | 23.9 |
| LINC02873 (GeneID 283171) | 1 | 0 | -9.1 | -4.6 | -13.5 |
| EFCAB3 (GeneID 146779) | 1 | 0 | 4.3 | 6.8 | 1.8 |
| USP19 (GeneID 10869) | 1 | 0 | 5.1 | 15.3 | -5.1 |
| HINT2 (GeneID 84681) | 1 | 0 | 9.6 | 0.2 | 19.1 |
| TEKT1 (GeneID 83659) | 1 | 0 | -0.1 | 13.6 | -13.7 |
| INTS4P1 (GeneID 285905) | 1 | 0 | 11.7 | 12.5 | 11 |
| LYST (GeneID 1130) | 1 | -1 | -0.6 | -15 | 13.8 |
| ABHD14A (GeneID 25864) | 1 | 0 | 11.6 | 14.4 | 8.7 |
| VRK1 (GeneID 7443) | 1 | 0 | 10.1 | 13.2 | 7.1 |
| CDH4 (GeneID 1002) | 1 | 0 | 0.1 | -5 | 5.3 |
| F2RL3 (GeneID 9002) | 1 | 0 | 3.6 | -11.4 | 18.7 |
| HESX1 (GeneID 8820) | 1 | 0 | -8.7 | -5.6 | -11.7 |
| LOC343184 | 1 | 1 | 13.8 | 13.6 | 14 |
| ZNF439 (GeneID 90594) | 1 | 1 | 12.7 | 11.5 | 13.9 |
| H2BC8 (GeneID 8339) | 1 | 0 | 14 | 22.9 | 5.1 |
| LIN7B (GeneID 64130) | 1 | 1 | 8.1 | -5.4 | 21.5 |
| SNX8 (GeneID 29886) | 1 | 0 | -17.5 | -41.3 | 6.4 |
| CHTF8 (GeneID 54921) | 1 | 0 | 13.4 | 28.6 | -1.9 |
| PLCD4 (GeneID 84812) | 1 | 0 | 2.4 | 2.8 | 2 |
| KCNJ3 (GeneID 3760) | 1 | 0 | 4.5 | 25.9 | -16.9 |
| CRIP2 (GeneID 1397) | 1 | 0 | -1.9 | -0.5 | -3.2 |
| ZNF254 (GeneID 9534) | 1 | 1 | 12.3 | 5.6 | 19 |
| ZNF254 (GeneID 9534) | 2 | 1 | 12.5 | 8.3 | 16.7 |
| TMEM222 (GeneID 84065) | 1 | 0 | 3.3 | 4.9 | 1.8 |
| FLVCR1 (GeneID 28982) | 1 | -1 | -10.7 | -14.1 | -7.2 |
| KRTAP11-1 (GeneID 337880) | 1 | 0 | 4.8 | 1.2 | 8.5 |
| NATD1 (GeneID 256302) | 1 | 1 | 7.8 | -0.2 | 15.7 |
| CHP2 (GeneID 63928) | 1 | 0 | -5.3 | -4.4 | -6.1 |
| LOC388910 | 1 | -1 | -8.6 | -21.1 | 4 |

Individual results from the entries so far:
For “two-siRNA summed score (-2 to +2)”, PLCD4 (GeneID 84812) shows 0
For “two-siRNA summed score (-2 to +2)”, LYST (GeneID 1130) reads -1
Value for CHP2 (GeneID 63928) in “protection from cisplatin (shift in death), siRNA C (%)”: -4.4
TEKT1 (GeneID 83659), two-siRNA summed score (-2 to +2) → 0
Result of USP19 (GeneID 10869) under “mean protection from cisplatin (shift in death) (%)”: 5.1
Under “two-siRNA summed score (-2 to +2)”, HESX1 (GeneID 8820) is entered as 0

The listing continues:
| Target gene | reagent no. | two-siRNA summed score (-2 to +2) | mean protection from cisplatin (shift in death) (%) | protection from cisplatin (shift in death), siRNA C (%) | protection from cisplatin (shift in death), siRNA D (%) |
| --- | --- | --- | --- | --- | --- |
| LRRC42 (GeneID 115353) | 1 | 0 | 1.5 | 4.7 | -1.8 |
| HBA2 (GeneID 3040) | 1 | 0 | 3.1 | -1.9 | 8.1 |
| LOC254938 | 1 | 0 | 7.5 | 11 | 4 |
| IFNL3 (GeneID 282617) | 1 | 0 | -14.7 | 3.5 | -32.9 |
| CYLC1 (GeneID 1538) | 1 | 0 | 7.6 | 5.6 | 9.7 |
| ATP7A (GeneID 538) | 1 | 0 | -3.2 | -3.5 | -2.8 |
| CRAMP1 (GeneID 57585) | 1 | 0 | -18.6 | -15.3 | -21.8 |
| RGSL1 (GeneID 353299) | 1 | 1 | 4.1 | 14.1 | -5.9 |
| RGSL1 (GeneID 353299) | 2 | 1 | 9.9 | 4.9 | 14.8 |
| LOC441483 | 1 | 1 | 15.6 | 23 | 8.1 |
| C1orf198 (GeneID 84886) | 1 | 0 | 8.6 | 0.2 | 17 |
| LZTS2 (GeneID 84445) | 1 | 0 | 1 | -27.5 | 29.6 |
| BIRC6 (GeneID 57448) | 1 | -1 | -23.4 | -7.6 | -39.2 |
| TACC1 (GeneID 6867) | 1 | 0 | 3.2 | 10.8 | -4.3 |
| URGCP (GeneID 55665) | 1 | 0 | -2.7 | -5.8 | 0.5 |
| ZCCHC17 (GeneID 51538) | 1 | 0 | 4.2 | 6.7 | 1.8 |
| CNTNAP2 (GeneID 26047) | 1 | 0 | -0.3 | -18.3 | 17.6 |
| EDDM3B (GeneID 64184) | 1 | -1 | -4.3 | -15.1 | 6.5 |
| ZSCAN10 (GeneID 84891) | 1 | 0 | -3.9 | 1.3 | -9.1 |
| LOC283129 | 1 | -1 | -7.3 | 3.8 | -18.4 |
| ZNF334 (GeneID 55713) | 1 | 0 | 7.2 | 11.8 | 2.7 |
| DCBLD2 (GeneID 131566) | 1 | 0 | -2.3 | 3.8 | -8.3 |
| YIPF5 (GeneID 81555) | 1 | 0 | -0.3 | -6.7 | 6.2 |
| LOC442150 | 1 | 0 | 5.2 | 6.9 | 3.5 |
| CATIP (GeneID 375307) | 1 | 0 | 13.7 | 9.9 | 17.6 |
| CEP128 (GeneID 145508) | 1 | 0 | 6.6 | 3.6 | 9.6 |
